Experimental findings from PMC12313893 are described below.

Chains of the proteins cited; added tags and fusions are not shown. A line that says so, or that is headed by a name, gives the form on record, which may keep a tag or linker.
QTRT1 (catalytic subunit of TGT) + QTRT2 (accessory subunit of TGT), one chain, as listed by the source, chain 2 of 2: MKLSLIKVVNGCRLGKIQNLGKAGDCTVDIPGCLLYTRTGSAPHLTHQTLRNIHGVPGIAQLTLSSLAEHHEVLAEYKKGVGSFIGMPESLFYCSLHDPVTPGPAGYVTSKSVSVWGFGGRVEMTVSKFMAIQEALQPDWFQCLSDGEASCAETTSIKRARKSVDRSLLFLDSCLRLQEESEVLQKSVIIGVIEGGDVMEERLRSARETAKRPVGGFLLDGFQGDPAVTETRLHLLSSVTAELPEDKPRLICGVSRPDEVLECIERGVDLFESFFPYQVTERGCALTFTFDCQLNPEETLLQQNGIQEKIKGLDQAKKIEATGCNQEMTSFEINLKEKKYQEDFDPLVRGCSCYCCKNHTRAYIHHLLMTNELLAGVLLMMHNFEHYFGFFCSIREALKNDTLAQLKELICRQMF
QTRT1 (catalytic subunit of TGT) + QTRT2 (accessory subunit of TGT), one chain, as listed by the source, chain 1 of 2: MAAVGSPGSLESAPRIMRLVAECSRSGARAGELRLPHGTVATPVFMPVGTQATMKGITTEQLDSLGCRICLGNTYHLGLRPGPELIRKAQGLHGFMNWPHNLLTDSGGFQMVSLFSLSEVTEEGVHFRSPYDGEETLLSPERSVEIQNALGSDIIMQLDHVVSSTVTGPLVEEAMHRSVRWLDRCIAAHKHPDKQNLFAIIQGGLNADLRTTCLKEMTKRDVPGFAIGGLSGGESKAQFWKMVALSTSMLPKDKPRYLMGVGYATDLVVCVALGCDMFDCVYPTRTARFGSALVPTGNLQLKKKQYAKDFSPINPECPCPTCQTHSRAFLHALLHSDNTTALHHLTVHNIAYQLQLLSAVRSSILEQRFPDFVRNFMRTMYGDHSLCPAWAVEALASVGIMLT

This series has as its system QTRT1 (catalytic subunit of TGT) + QTRT2 (accessory subunit of TGT). The experiment in a line: covalent intermediate gel shift. The conditions noted are these: none (unmodified transcript); recombinant protein; letters put together from the description.

For at least one entry, the source does not settle the construct or the ends of the probe. At least one verdict was read from the data and is not stated in words by the source.

Take “GGCCUUCGAUAGCUCAGUUGGUAGAGCGGAGGACUGUAGGUCAUUGUUCUAGAAAUCCUUAGGUCGCUGGUUCGAAUCCGGCUCGAAGGA [m_pre-tRNATyr 1-4 (intron-containing)]”: the binding result is recorded as “binds”.
For the sequence “GGCCUUCGAUAGCUCAGUUGGUAGAGCGGAGGACUGUAGAUCCUUAGGUCGCUGGUUCGAAUCCGGCUCGAAGGA [m_tRNATyr (mature, GUA)]”, the binding result is given as “binds”.
Turning to “GGCCUUCGAUAGCUCAGUUGGUAGAGCGGAGGACUGUAGUCAGUACAAUAUGGUAAUCCUUAGGUCGCUGGUUCGAUUCCGGCUCGAAGGA [m_pre-tRNATyr 2-1 (intron-containing)]”, the binding result is given as “binds”.
